Test results taken from PubChem BioAssay AID1671190 (National Center for Advancing Translational Sciences (NCATS), 2021).
In all, about 580,000 compounds went through this assay and about 6,100 (1.1%) were called active. This list was built around the results that the source calls inconclusive (neither active nor inactive); the mix of calls is not that of the screen. Calls come from the whole dose curve; as a rule, active = well fitted inhibition curve with a large enough effect; inconclusive = small, poorly fitted or top-dose-only effect, or another doubt; inactive = no such curve, though single readings can be large or run the other way. Potencies beside an inconclusive call are fits to weak or partial responses and may not hold up.

Protein sequences, listed by entry. Tags and fused reporters are not part of them. Lines headed by an entry give the natural chain unless they say otherwise; changes in a name come on top.
UniProt P18054: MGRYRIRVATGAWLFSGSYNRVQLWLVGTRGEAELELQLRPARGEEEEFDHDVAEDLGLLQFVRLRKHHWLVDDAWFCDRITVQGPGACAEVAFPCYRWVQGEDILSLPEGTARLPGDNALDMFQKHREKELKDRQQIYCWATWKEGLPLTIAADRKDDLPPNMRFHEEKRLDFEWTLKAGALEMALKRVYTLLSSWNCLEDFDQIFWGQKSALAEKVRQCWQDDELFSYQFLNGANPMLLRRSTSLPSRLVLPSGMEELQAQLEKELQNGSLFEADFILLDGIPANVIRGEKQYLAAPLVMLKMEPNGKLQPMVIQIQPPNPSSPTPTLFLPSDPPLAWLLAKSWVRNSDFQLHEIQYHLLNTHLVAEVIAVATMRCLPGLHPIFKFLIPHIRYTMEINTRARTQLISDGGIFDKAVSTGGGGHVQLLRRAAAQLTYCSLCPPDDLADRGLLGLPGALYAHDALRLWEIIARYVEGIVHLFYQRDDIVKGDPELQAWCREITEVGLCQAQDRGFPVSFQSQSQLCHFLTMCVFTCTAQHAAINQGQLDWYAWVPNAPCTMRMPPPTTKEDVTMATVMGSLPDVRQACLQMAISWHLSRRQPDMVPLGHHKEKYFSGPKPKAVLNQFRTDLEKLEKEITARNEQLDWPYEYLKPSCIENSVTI

Target: Polyunsaturated fatty acid lipoxygenase ALOX12 (Homo sapiens) (UniProt P18054)
Assay: Primary qHTS assay for inhibitors of human arachidonate 12S-lipoxygenase (ALOX12): Round 2
Conditions: purified 12hLO, xylenol orange hydroperoxide absorbance; series mostly up to 108 µM
Method in brief: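 Hydroperoxide product was detected by ferrous iron/xylenol orange as the 573 to 405 nm absorbance ratio. Arachidonic acid at 40 uM (final) was turned over for 30 min at room temperature by 150 nM human 12hLO, pH 7.0 Hepes buffer, after 15 min compound preincubation.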
Potency is the fitted concentration of half-maximal effect.

| SMILES | Potency |
| --- | --- |
| O=S(=O)(Nc1cccc(-c2cn3cccnc3n2)c1)c1ccc(-c2ccccc2)cc1 | inactive |
| Cn1c(=O)c2c(-c3ccccc3)n3c(c2n(C)c1=O)C(c1cc(Cl)ccc1O)Nc1ccccc1-3 (stereo not drawn) | inactive |
| CCOc1ccc(-c2c(C(=O)N/N=C/c3cccs3)nnn2-c2nonc2N)cc1 | inactive |
| COc1ccc(NC(=O)Cn2ccn3nc4c(c3c2=O)CC(C)CC4)cc1Cl (stereo not drawn) | inconclusive: 35.5 µM [inhibitor, partial curve] |
| COCCN(CCOC)C(=O)COc1cc2oc(=O)cc(C)c2cc1Cl | inactive |
| O=S(=O)(NC1CCSc2c(F)cccc21)c1ccc(F)cc1 (stereo not drawn) | inactive |
| CCOC1=C2[C@@H](CN(S(=O)(=O)c3ccc(C)cc3)[C@H]2c2cccc3ccccc23)[C@H]2C(=O)N(C)C(=O)[C@H]2C1 | inactive |
| O=C(O)c1cccc(NS(=O)(=O)c2ccc3nnn(O)c3c2)c1 | inconclusive: 7.08 µM [inhibitor, partial curve, poor fit] |
| COCC(=O)N1CCN(Cc2nc(C(C)C)no2)CC1 | inactive |
| COc1ccc(CCN2CC(C(=O)Nc3nccs3)CC2=O)cc1OC (stereo not drawn) | inconclusive: 126 µM [inhibitor, single point] |
| CC1(C)OC(=O)C2=C(C[C@@H](C3CCCCC3)O[C@@H]2c2ccc(F)cc2)O1 | inconclusive: 112 µM [inhibitor, partial curve, poor fit] |
| O=C(O)CCc1ccc(-c2ccc(F)cc2)n1CC1CCCO1 (stereo not drawn) | inactive |
| COc1ccc(N2C(=O)CCC(C(=O)O)C2c2ccc(F)cc2)cc1 (stereo not drawn) | inconclusive: 50.1 µM [inhibitor, partial curve, poor fit] |
| NC(=S)NNC(=O)C12CC3CC(CC(C3)C1)C2 | inactive |
| COc1ccc(C(=O)c2ccc(OC)c(Br)c2)cc1Br | inconclusive: 3.16 µM [inhibitor, full curve, poor fit] |
| CCn1cc(C(=O)NCCCO)c(=O)c2cc(F)c(N3CCN(C)CC3)cc21 | inconclusive: 28.2 µM [inhibitor, partial curve, poor fit] |
| Cc1nc(N)nc(C)c1CC(=O)N1CCn2nc(C(O)CO)cc2C1 (stereo not drawn) | inconclusive: 1.41 µM [inhibitor, full curve] |
| CCCCN1C(=O)CC(Sc2ncccc2C(=O)O)C1=O (stereo not drawn) | inconclusive: 112 µM [inhibitor, single point] |
| Cc1ccc(S(=O)(=O)N2CCCC(CCC(=O)N3CCc4ccccc4C3)C2)cc1 (stereo not drawn) | inconclusive: 39.8 µM [inhibitor, full curve, poor fit] |
| S=C(NCC1CCCO1)NC12CC3CC(CC(C3)C1)C2 (stereo not drawn) | inconclusive: 44.7 µM [inhibitor, partial curve] |
| CCN(CC)CCNC(=S)Nc1ccc2nc(N3CCN(CC)CC3)cc(C)c2c1 | inactive |
| Cc1ccc(NC(=O)CSc2ncccc2C(=O)Oc2cccc([N+](=O)[O-])c2)cc1Cl | inconclusive: 50.1 µM [inhibitor, partial curve, poor fit] |
| Cc1cccc(OCC(=O)OCC(=O)Nc2ccc(Cl)cn2)c1 | inconclusive: 112 µM [inhibitor, single point] |

| SMILES | Potency |
| --- | --- |
| COc1ccc(-c2ccc3c(c2)C2CC3CCN2)cc1 (stereo not drawn) | inconclusive: 44.7 µM [inhibitor, partial curve, poor fit] |
| COc1cc(OC)cc(C(=O)NCC(C)NC(=O)c2cc(OC)cc(OC)c2)c1 (stereo not drawn) | inconclusive: 112 µM [inhibitor, single point] |
| Cc1ccc(CNC(=O)N2CCC(OC3CCN(Cc4ccccc4)CC3)CC2)cc1 | inactive |
| O=C(O)c1cc(NC(=O)c2ccccc2)cc(C(=O)O)c1 | inconclusive: 44.7 µM [inhibitor, partial curve, poor fit] |
| O=C(CN1C(=O)/C(=C/c2ccco2)SC1=S)Nc1ccc(O)c(C(=O)O)c1 | inconclusive: 56.2 µM [inhibitor, partial curve, poor fit] |
| COc1ccccc1-c1c(C)nn2c(N)c(-c3ccccc3)cnc12 | inactive |
| Cc1nc2ccc(C(=O)OC(C)C(=O)NC3CC3)cc2nc1C (stereo not drawn) | inactive |
| COc1ccc(/C=N\NC(=O)C2C(=O)NCC2c2ccccc2)cc1O (stereo not drawn) | inactive |
| CCOc1ccc2[nH]cc(C(=O)NCCCN3CCOCC3)c(=O)c2c1 | inactive |
| COc1cc(-c2nc3cnccn3c2Nc2ccccc2)ccc1O | inconclusive: 31.6 µM [inhibitor, partial curve, poor fit] |
| FC(F)(F)c1ccc(-c2nc3ccccc3s2)cc1 | inactive |
| CCc1ccccc1NC(=O)CSc1ncc2c(n1)-c1ccccc1N(C)S2(=O)=O | inconclusive: 89.1 µM [inhibitor, partial curve, poor fit] |
| N#Cc1c(SCC(=O)Nc2nc3ccccc3s2)sc2c(O)cc(=O)[nH]c12 | inconclusive: 35.5 µM [inhibitor, partial curve, poor fit] |
| CC(C)(C)c1ccc(/C=C/C(=O)NCCCN2CCOCC2)cc1 | inactive |
| COc1cccc(-n2nc(C(=O)Nc3cc(OC)c(OC)c(OC)c3)c3ccccc3c2=O)c1 | inactive |
| CCN(C(=O)C(NS(=O)(=O)c1cccc2nsnc12)c1ccccc1)c1ccccc1 (stereo not drawn) | inconclusive: 44.7 µM [inhibitor, partial curve, poor fit] |
| CCn1c(=N)c(C(=O)NCCCOC)cc2c(=O)n3cccc(C)c3nc21 | inconclusive: 31.6 µM [inhibitor, partial curve, poor fit] |
| CC(C)(CNC(=O)c1cc([N+](=O)[O-])ccc1N1CCC(Cc2ccccc2)CC1)N1CCOCC1 | inactive |
| CCc1ccc2cc(-c3ccccc3)cn2c1 | inconclusive: 39.8 µM [inhibitor, partial curve, poor fit] |
| Cc1ccc(C)c(N2CCN(CCCNc3ncnc4onc(-c5ccc(Cl)cc5)c34)CC2)c1 | inactive |
| Cc1ccc(Nc2nc(COC(=O)c3ccc4c(c3)C(=O)N(C)C4=O)cs2)cc1 | inactive |
| CC(NC(=O)Cn1nc(C(=O)O)c2ccccc2c1=O)c1ccc(Cl)cc1Cl (stereo not drawn) | inconclusive: 100 µM [inhibitor, partial curve, poor fit] |
| N#C/C(=C/c1ccc(F)cc1)C(=O)c1c[nH]c2cc(F)ccc12 | inconclusive: 100 µM [inhibitor, partial curve, poor fit] |

Structural class, the compounds so far with four or more nitrogen atoms

| SMILES | Potency |
| --- | --- |
| O=S(=O)(Nc1cccc(-c2cn3cccnc3n2)c1)c1ccc(-c2ccccc2)cc1 | inactive |
| Cn1c(=O)c2c(-c3ccccc3)n3c(c2n(C)c1=O)C(c1cc(Cl)ccc1O)Nc1ccccc1-3 (stereo not drawn) | inactive |
| CCOc1ccc(-c2c(C(=O)N/N=C/c3cccs3)nnn2-c2nonc2N)cc1 | inactive |
| COc1ccc(NC(=O)Cn2ccn3nc4c(c3c2=O)CC(C)CC4)cc1Cl (stereo not drawn) | inconclusive: 35.5 µM [inhibitor, partial curve] |
| O=C(O)c1cccc(NS(=O)(=O)c2ccc3nnn(O)c3c2)c1 | inconclusive: 7.08 µM [inhibitor, partial curve, poor fit] |
| COCC(=O)N1CCN(Cc2nc(C(C)C)no2)CC1 | inactive |
| CCn1cc(C(=O)NCCCO)c(=O)c2cc(F)c(N3CCN(C)CC3)cc21 | inconclusive: 28.2 µM [inhibitor, partial curve, poor fit] |
| Cc1nc(N)nc(C)c1CC(=O)N1CCn2nc(C(O)CO)cc2C1 (stereo not drawn) | inconclusive: 1.41 µM [inhibitor, full curve] |
| CCN(CC)CCNC(=S)Nc1ccc2nc(N3CCN(CC)CC3)cc(C)c2c1 | inactive |
| COc1ccccc1-c1c(C)nn2c(N)c(-c3ccccc3)cnc12 | inactive |
| COc1cc(-c2nc3cnccn3c2Nc2ccccc2)ccc1O | inconclusive: 31.6 µM [inhibitor, partial curve, poor fit] |
| CCc1ccccc1NC(=O)CSc1ncc2c(n1)-c1ccccc1N(C)S2(=O)=O | inconclusive: 89.1 µM [inhibitor, partial curve, poor fit] |
| N#Cc1c(SCC(=O)Nc2nc3ccccc3s2)sc2c(O)cc(=O)[nH]c12 | inconclusive: 35.5 µM [inhibitor, partial curve, poor fit] |
| CCN(C(=O)C(NS(=O)(=O)c1cccc2nsnc12)c1ccccc1)c1ccccc1 (stereo not drawn) | inconclusive: 44.7 µM [inhibitor, partial curve, poor fit] |
| CCn1c(=N)c(C(=O)NCCCOC)cc2c(=O)n3cccc(C)c3nc21 | inconclusive: 31.6 µM [inhibitor, partial curve, poor fit] |
| CC(C)(CNC(=O)c1cc([N+](=O)[O-])ccc1N1CCC(Cc2ccccc2)CC1)N1CCOCC1 | inactive |
| Cc1ccc(C)c(N2CCN(CCCNc3ncnc4onc(-c5ccc(Cl)cc5)c34)CC2)c1 | inactive |

Further structures:

| SMILES | Potency |
| --- | --- |
| CCOC(=O)C(C(=O)OCC)=C(C(=O)OCC)C(=O)OCC | inconclusive: 14.1 µM [inhibitor, full curve, poor fit] |
| Cc1noc(-c2cn(C3CCN(C(=O)c4sccc4C)C3)nn2)n1 (stereo not drawn) | inactive |
| C=CCn1c(C)csc1=Nc1ccc(C(=O)O)cc1 | inconclusive: 25.1 µM [inhibitor, single point] |
| O=c1n(-c2ccc(C(F)(F)F)cc2)nc2n1CCN(Cc1ccc(C(F)(F)F)cc1)C2 | inconclusive: 1.58 µM [inhibitor, full curve, poor fit] |
| Cc1noc(C)c1-c1cncnc1N1CCN(C)CC1 | inconclusive: 112 µM [inhibitor, single point] |
| COc1ccc(OC)c(CNC(=O)CCS(=O)(=O)c2ccc3c(c2)oc(=O)n3C)c1 | inconclusive: 35.5 µM [inhibitor, partial curve, poor fit] |
| Cc1cccc(NC(=O)NNC(=O)c2c(Cl)c(C)nn2C)c1 | inactive |
| CCOc1ccc(NC(=O)CN(C)C(=O)c2cc(C)nc3ccccc23)cc1OCC | inactive |
| Cc1cc(C)c(NC(=O)CN2C(=O)c3cccnc3Oc3ccc(Cl)cc32)c(C)c1 | inconclusive: 56.2 µM [inhibitor, partial curve, poor fit] |
| Cc1ccc(N(CC(=O)N2CCn3c2nc2ccccc23)S(=O)(=O)c2c(C)n[nH]c2C)cc1 | inconclusive: 63.1 µM [inhibitor, partial curve, poor fit] |
| C[C@H]1COc2cc(N3CCN(Cc4ccccc4F)CC3)ccc2S(=O)(=O)N1 | inconclusive: 112 µM [inhibitor, partial curve, poor fit] |
| COc1ccccc1-c1cc(-c2cc(Cl)ccc2O)n[nH]1 | inactive |
| O=C1C=CC(=O)N1N(c1ccccc1)c1ccccc1 | active: 35.5 µM |
| O=C(Cc1cccs1)N1CCN(c2cc(C(F)(F)F)ncn2)CC1 | active: 35.5 µM |
| COc1ccc(-c2nc3ccccn3c2Cl)cc1 | inconclusive: 44.7 µM [inhibitor, partial curve, poor fit] |
| CCC(C)NC(=O)C(NC(=O)c1ccc(C)cc1)C1CCN(C(=O)c2ccccc2C)CC1 (stereo not drawn) | inactive |
| COC/C=C/C1=CC2=CC(=O)C(C)(OC(=O)c3cnc4ccccc4n3)C(=O)C2=CN1Cc1ccccc1 (stereo not drawn) | inconclusive: 7.94 µM [inhibitor, full curve] |
| CC(C)Cn1nc(C(=O)N2CCCC(c3nc4ccccc4s3)C2)c2ccccc2c1=O (stereo not drawn) | inconclusive: 50.1 µM [inhibitor, partial curve, poor fit] |
| CC1CCN(S(=O)(=O)c2cccc(C(=O)NC3CCS(=O)(=O)C3)c2)CC1 (stereo not drawn) | inconclusive: 141 µM [inhibitor, partial curve, poor fit] |
| CC1=C(C(=O)O)N2C(=O)C(NC(=O)c3ccc(F)cc3)C2SC1 (stereo not drawn) | inconclusive: 17.8 µM [inhibitor, partial curve, poor fit] |
| O=C(CSc1ccsc1[N+](=O)[O-])NCc1ccccc1 | inconclusive: 39.8 µM [inhibitor, partial curve, poor fit] |
| O=C(NCc1ccccc1)C1=C[C@@H](C2CCCCC2)C[C@@H](OCCCCO)O1 | inconclusive: 39.8 µM [inhibitor, partial curve, poor fit] |
